In patent US9775856B2, “C-glycosylpolyphenol antidiabetic agents, effect on glucose tolerance and interaction with beta-amyloid. therapeutic applications of the synthesized agent(s) and of Genista tenera ethyl acetate extracts containing some of those agents” (FACULDADE DE CIENCIAS DA UNIVERSIDADE DE LISBOA, priority 2012, dated 2017):
At least one structure is not confirmed: it was looked up by name or label, or the drawing left a doubt.

System: α-glucosidase
Experiment: Inhibition of α-glucosidase
Type: biochemical
Settings: 400 mg/L, rat intestinal acetone powder enzyme, maltose substrate

C[C@H]1O[C@H](O[C@H]2[C@H](O)[C@@H](O)[C@@H](O[C@H]3[C@H](O)[C@@H](O)C(O)O[C@@H]3CO)O[C@@H]2CO)[C@H](O)[C@@H](O)[C@@H]1N[C@H]1C=C(CO)[C@@H](O)[C@H](O)[C@H]1O (stereo partly shown) [acarbose]
α-glucosidase enzymatic activity reduced to: 17.39%
